Reference: the supplement of paper PMC9549374
The other results are listed elsewhere or left out. No stated cut-off is given here; in the data, active = 2-fold of DMSO or more and inactive = the rest. Single values of this set are uncertain. Some low values are a fixed figure set by the source, not a measured ratio.

System: CM7/1-hgem mouse ES cell-derived cardiomyocytes
Assay: maximal number of mAG-hGem(1/110)-positive cardiomyocytes over 96 h, fold-change vs DMSO; higher = more cardiomyocyte cell cycle activity
Details: 1 µM; 96 (max over 12 h time points) h

Structure (SMILES)	maximal number
CCN(CC)CCOC(=O)C(c1ccccc1)C1CCCCC1 (stereo not drawn)	inactive: 1
CCCCCN(CCCCC)C(=O)C(CCC(=O)O)NC(=O)c1ccc(Cl)c(Cl)c1 (stereo not drawn)	inactive: 0
CCC(C)(C)c1ccc(CC(C)CN2C[C@@H](C)O[C@@H](C)C2)cc1 (stereo partly drawn)	inactive: 1
CC(=O)c1cc2c(cc1O)OC(C)(C)C=C2	inactive: 1
C[C@H]1[C@H](OC(=O)CCC(=O)O)O[C@@H]2O[C@@]3(C)CC[C@H]4[C@H](C)CC[C@@H]1[C@@]24OO3	inactive: 1
CCOc1ccc2c(c1)C(C)=CC(C)(C)N2	inactive: 1
COc1cc(-c2coc3cc(OCc4ccccc4)c(OC)c(O)c3c2=O)cc(OCc2ccccc2)c1OC	inactive: 1
OC[C@H]1O[C@@H](O[C@H]2[C@H](O)[C@@H](O)[C@@H](O)O[C@@H]2CO)[C@H](O)[C@@H](O)[C@@H]1O	inactive: 1
COc1c(O)cc2c(c1O)[C@@H]1O[C@H](CO)[C@@H](O)[C@H](O)[C@H]1OC2=O	inactive: 1
CCOc1cccc(C(=O)c2ccc(O)c(O)c2O)c1	inactive: 1
COc1ccc(-c2cc(=O)c3c(O)c(OC)c(O[C@@H]4O[C@H](CO[C@@H]5O[C@@H](C)[C@H](O)[C@@H](O)[C@H]5O)[C@@H](O)[C@H](O)[C@H]4O)cc3o2)cc1	inactive: 1
O=c1cc(-c2ccc(O)cc2)oc2cc(O[C@@H]3O[C@H](CO)[C@@H](O)[C@H](O)[C@H]3O)cc(O)c12	inactive: 1
CC(C)=CCc1c2c(c3occ(-c4ccc(O)c(O)c4)c(=O)c3c1O)C=CC(C)(C)O2	inactive: 1
COc1cc(-c2coc3cc(OC)c(OC)c(OC)c3c2=O)cc(OC)c1OC	inactive: 1
C=CC1=C(C)c2cc3[nH]c(cc4nc(cc5[nH]c(cc1n2)c(C)c5CCC(=O)O)C(CCC(=O)O)=C4C)c(C)c3C=C	inactive: 1
CC(=O)Nc1ccc(OC(C)=O)cc1	inactive: 1
CC(C)c1ccc2oc3nc(N)c(C(=O)O)cc3c(=O)c2c1	inactive: 1
CC(C)CCC[C@@H](C)[C@H]1CC[C@H]2[C@@H]3CC=C4C[C@@H](O)CC[C@]4(C)[C@H]3CC[C@]12C	inactive: 1
N#C[C@@H]1C[C@@H]2C[C@@H]2N1C(=O)[C@@H](N)C12CC3CC(CC(O)(C3)C1)C2	inactive: 1

Of the compounds above, these have nitrogen in an aromatic ring.
Structure (SMILES)	maximal number
C=CC1=C(C)c2cc3[nH]c(cc4nc(cc5[nH]c(cc1n2)c(C)c5CCC(=O)O)C(CCC(=O)O)=C4C)c(C)c3C=C	inactive: 1
CC(C)c1ccc2oc3nc(N)c(C(=O)O)cc3c(=O)c2c1	inactive: 1

Further structures.

Structure (SMILES)	maximal number
CCC1(C)CC(=O)NC1=O (stereo not drawn)	inactive: 1
OCC(O)C(O)C(O)CO (stereo not drawn)	inactive: 1
Nc1nc(Cl)nc2c1ncn2[C@@H]1O[C@H](CO)[C@@H](O)[C@@H]1F	inactive: 0
CC1CCN(CCCC(=O)c2ccc(F)cc2)CC1	inactive: 1
O=C(Oc1ccccc1C(=O)O)c1ccccc1O	inactive: 1
C=CCc1ccccc1OCC(O)CNC(C)C (stereo not drawn)	inactive: 0.5
CO[C@H]1[C@H](O)[C@@H](O)[C@H](O)[C@H](O)[C@H]1O	inactive: 1
OC[C@H]1O[C@@H](Oc2cc(O)cc(/C=C/c3ccc(O)cc3)c2)[C@H](O)[C@@H](O)[C@@H]1O	inactive: 1
O=C1O[C@H]([C@@H](O)CO)C(O)=C1O	inactive: 1
CCN(CCCCOC(=O)c1ccc(OC)c(OC)c1)C(C)Cc1ccc(OC)cc1 (stereo not drawn)	inactive: 1
O=C1c2ccccc2C(=O)c2c1ccc(O)c2O	inactive: 0.5
NC(=O)CC[C@H](N)C(=O)O	inactive: 1
C=C1c2c(Cl)ccc(O)c2C(=O)C2=C(O)[C@]3(O)C(=O)C(C(N)=O)=C(O)[C@@H](N(C)C)[C@@H]3[C@@H](O)[C@H]12.O=C(O)c1cc(S(=O)(=O)O)ccc1O	inactive: 1
COc1c(O)cccc1O	inactive: 1
C=CCc1ccc(OC(=O)c2ccccc2)c(OC)c1	inactive: 0
O=c1cc[nH]c(=O)[nH]1	inactive: 1
CCC(=O)Oc1ccc2c(c1)CC[C@@H]1[C@@H]2CC[C@]2(C)[C@@H](OC(=O)CC)CC[C@@H]12	inactive: 1
COc1ccc([C@H]2Oc3cc(OC)cc(OC)c3C[C@H]2O)cc1	inactive: 1
COC(=O)C1=C(C)NC(C)=C(C(=O)OC(C)C)C1c1cccc2nonc12 (stereo not drawn)	inactive: 1
